Test results reported in the supplement of paper PMC4604168 (melanoma cell lines).
The other results are listed elsewhere or left out. Many values rest on one well or one pass, so single values are uncertain.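 Imaging used 1,536-well plates; nuclei positive for cleaved PARP by antibody were divided by total DNA-stained nuclei to yield the apoptosis fraction. Doses for screening kept most cells viable, and cell lines differ markedly in resting and induced cleaved-PARP levels.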

The compounds below were run on WM1745 (assay: cleaved PARP positive nuclei fraction relative to DMSO control; melanoma cells; higher = more apoptosis). Settings: library dose: low library concentration; 72 h.

Compound	cleaved PARP positive nuclei fraction
CO[C@H]1C[C@@H]2CC[C@@H](C)[C@@](O)(O2)C(=O)C(=O)N2CCCC[C@H]2C(=O)O[C@H]([C@H](C)C[C@@H]2CC[C@@H](OCCO)[C@H](OC)C2)CC(=O)[C@H](C)/C=C(\C)[C@@H](O)[C@@H](OC)C(=O)[C@H](C)C[C@H](C)/C=C/C=C/C=C/1C [everolimus] + O=S(=O)(c1ccccc1)N(CC(F)(F)F)c1ccc(C(O)(C(F)(F)F)C(F)(F)F)cc1 [T0901317] (first compound 0.02 µM, partner dose 1.4 µM)	102%
Cn1c(=O)n(-c2ccc(C(C)(C)C#N)cc2)c2c3cc(-c4cnc5ccccc5c4)ccc3ncc21 + CN1CCN(c2ccc3nc(-c4c(N)c5c(F)cccc5[nH]c4=O)[nH]c3c2)CC1 [Dovitinib] (first compound 0.004 µM, partner dose 0.1 µM)	82.1%
CO[C@H]1C[C@@H]2CC[C@@H](C)[C@@](O)(O2)C(=O)C(=O)N2CCCC[C@H]2C(=O)O[C@H]([C@H](C)C[C@@H]2CC[C@@H](OCCO)[C@H](OC)C2)CC(=O)[C@H](C)/C=C(\C)[C@@H](O)[C@@H](OC)C(=O)[C@H](C)C[C@H](C)/C=C/C=C/C=C/1C [everolimus] + COc1cc(Nc2ncc(F)c(Nc3ccc4c(n3)NC(=O)C(C)(C)O4)n2)cc(OC)c1OC [Tamatinib] (first compound 0.02 µM, partner dose 0.4 µM)	135%
CO[C@H]1C[C@@H]2CC[C@@H](C)[C@@](O)(O2)C(=O)C(=O)N2CCCC[C@H]2C(=O)O[C@H]([C@H](C)C[C@@H]2CC[C@@H](OCCO)[C@H](OC)C2)CC(=O)[C@H](C)/C=C(\C)[C@@H](O)[C@@H](OC)C(=O)[C@H](C)C[C@H](C)/C=C/C=C/C=C/1C [everolimus] + CO[C@@H]1[C@H](N(C)C(=O)c2ccccc2)C[C@H]2O[C@]1(C)n1c3ccccc3c3c4c(c5c6ccccc6n2c5c31)C(=O)NC4 [Midostaurin] (first compound 0.02 µM, partner dose 0.08 µM)	104%
CO[C@H]1C[C@@H]2CC[C@@H](C)[C@@](O)(O2)C(=O)C(=O)N2CCCC[C@H]2C(=O)O[C@H]([C@H](C)C[C@@H]2CC[C@@H](OCCO)[C@H](OC)C2)CC(=O)[C@H](C)/C=C(\C)[C@@H](O)[C@@H](OC)C(=O)[C@H](C)C[C@H](C)/C=C/C=C/C=C/1C [everolimus] + CCN(CC)CCCCNc1ncc2cc(-c3cc(OC)cc(OC)c3)c(NC(=O)NC(C)(C)C)nc2n1 [PD173074] (first compound 0.02 µM, partner dose 0.1 µM)	93.1%
CO[C@H]1C[C@@H]2CC[C@@H](C)[C@@](O)(O2)C(=O)C(=O)N2CCCC[C@H]2C(=O)O[C@H]([C@H](C)C[C@@H]2CC[C@@H](OCCO)[C@H](OC)C2)CC(=O)[C@H](C)/C=C(\C)[C@@H](O)[C@@H](OC)C(=O)[C@H](C)C[C@H](C)/C=C/C=C/C=C/1C [everolimus] + Cc1cc(N2CCOCC2)cc2[nH]c(-c3c(NC[C@@H](O)c4cccc(Cl)c4)cc[nH]c3=O)nc12 [BMS536924] (first compound 0.02 µM, partner dose 0.2 µM)	125%
CO[C@H]1C[C@@H]2CC[C@@H](C)[C@@](O)(O2)C(=O)C(=O)N2CCCC[C@H]2C(=O)O[C@H]([C@H](C)C[C@@H]2CC[C@@H](OCCO)[C@H](OC)C2)CC(=O)[C@H](C)/C=C(\C)[C@@H](O)[C@@H](OC)C(=O)[C@H](C)C[C@H](C)/C=C/C=C/C=C/1C [everolimus] + Cn1cc(/C=C2\C(=O)Nc3cccnc32)c2ccccc21 [GW441756] (first compound 0.02 µM, partner dose 0.4 µM)	108%
CO[C@H]1C[C@@H]2CC[C@@H](C)[C@@](O)(O2)C(=O)C(=O)N2CCCC[C@H]2C(=O)O[C@H]([C@H](C)C[C@@H]2CC[C@@H](OCCO)[C@H](OC)C2)CC(=O)[C@H](C)/C=C(\C)[C@@H](O)[C@@H](OC)C(=O)[C@H](C)C[C@H](C)/C=C/C=C/C=C/1C [everolimus] + Cn1c(Nc2ccc(C(F)(F)F)cc2)nc2cc(Oc3ccnc(-c4ncc(C(F)(F)F)[nH]4)c3)ccc21 [CHIR265] (first compound 0.02 µM, partner dose 0.08 µM)	130%
CO[C@H]1C[C@@H]2CC[C@@H](C)[C@@](O)(O2)C(=O)C(=O)N2CCCC[C@H]2C(=O)O[C@H]([C@H](C)C[C@@H]2CC[C@@H](OCCO)[C@H](OC)C2)CC(=O)[C@H](C)/C=C(\C)[C@@H](O)[C@@H](OC)C(=O)[C@H](C)C[C@H](C)/C=C/C=C/C=C/1C [everolimus] + COc1cc2ncnc(Nc3ccc(Oc4ccccc4)cc3)c2cc1OC [SrcI1] (first compound 0.02 µM, partner dose 2 µM)	108%
CO[C@H]1C[C@@H]2CC[C@@H](C)[C@@](O)(O2)C(=O)C(=O)N2CCCC[C@H]2C(=O)O[C@H]([C@H](C)C[C@@H]2CC[C@@H](OCCO)[C@H](OC)C2)CC(=O)[C@H](C)/C=C(\C)[C@@H](O)[C@@H](OC)C(=O)[C@H](C)C[C@H](C)/C=C/C=C/C=C/1C [everolimus] + CN(NC(=O)CC(=O)NN(C)C(=S)c1ccccc1)C(=S)c1ccccc1 [STA4783] (first compound 0.02 µM, partner dose 0.006 µM)	371%
CO[C@H]1C[C@@H]2CC[C@@H](C)[C@@](O)(O2)C(=O)C(=O)N2CCCC[C@H]2C(=O)O[C@H]([C@H](C)C[C@@H]2CC[C@@H](OCCO)[C@H](OC)C2)CC(=O)[C@H](C)/C=C(\C)[C@@H](O)[C@@H](OC)C(=O)[C@H](C)C[C@H](C)/C=C/C=C/C=C/1C [everolimus] + CCCCCCCCCCCC1=C(O)C(=O)C=C(O)C1=O [Embelin] (first compound 0.02 µM, partner dose 1.2 µM)	98.9%
CO[C@H]1C[C@@H]2CC[C@@H](C)[C@@](O)(O2)C(=O)C(=O)N2CCCC[C@H]2C(=O)O[C@H]([C@H](C)C[C@@H]2CC[C@@H](OCCO)[C@H](OC)C2)CC(=O)[C@H](C)/C=C(\C)[C@@H](O)[C@@H](OC)C(=O)[C@H](C)C[C@H](C)/C=C/C=C/C=C/1C [everolimus] + COC(=O)c1sccc1S(=O)(=O)Nc1ccc(Nc2ccccc2)cc1OC [GSK0660] (first compound 0.02 µM, partner dose 1 µM)	117%
CO[C@H]1C[C@@H]2CC[C@@H](C)[C@@](O)(O2)C(=O)C(=O)N2CCCC[C@H]2C(=O)O[C@H]([C@H](C)C[C@@H]2CC[C@@H](OCCO)[C@H](OC)C2)CC(=O)[C@H](C)/C=C(\C)[C@@H](O)[C@@H](OC)C(=O)[C@H](C)C[C@H](C)/C=C/C=C/C=C/1C [everolimus] + C[C@@H]1CCN(C(=O)CC#N)C[C@@H]1N(C)c1ncnc2[nH]ccc12 [CP690550] (first compound 0.02 µM, partner dose 1 µM)	96.9%
CO[C@H]1C[C@@H]2CC[C@@H](C)[C@@](O)(O2)C(=O)C(=O)N2CCCC[C@H]2C(=O)O[C@H]([C@H](C)C[C@@H]2CC[C@@H](OCCO)[C@H](OC)C2)CC(=O)[C@H](C)/C=C(\C)[C@@H](O)[C@@H](OC)C(=O)[C@H](C)C[C@H](C)/C=C/C=C/C=C/1C [everolimus] + Oc1cc(-c2nc(-c3ccccc3)[nH]c2-c2ccncc2)ccc1Cl [L779450] (first compound 0.02 µM, partner dose 0.2 µM)	117%
CO[C@H]1C[C@@H]2CC[C@@H](C)[C@@](O)(O2)C(=O)C(=O)N2CCCC[C@H]2C(=O)O[C@H]([C@H](C)C[C@@H]2CC[C@@H](OCCO)[C@H](OC)C2)CC(=O)[C@H](C)/C=C(\C)[C@@H](O)[C@@H](OC)C(=O)[C@H](C)C[C@H](C)/C=C/C=C/C=C/1C [everolimus] + Cn1cncc1[C@@](N)(c1ccc(Cl)cc1)c1ccc2c(c1)c(-c1cccc(Cl)c1)cc(=O)n2C [tipifarnib] (first compound 0.02 µM, partner dose 0.01 µM)	104%
CO[C@H]1C[C@@H]2CC[C@@H](C)[C@@](O)(O2)C(=O)C(=O)N2CCCC[C@H]2C(=O)O[C@H]([C@H](C)C[C@@H]2CC[C@@H](OCCO)[C@H](OC)C2)CC(=O)[C@H](C)/C=C(\C)[C@@H](O)[C@@H](OC)C(=O)[C@H](C)C[C@H](C)/C=C/C=C/C=C/1C [everolimus] + NCC(=O)Nc1ccc(-n2nc(C(F)(F)F)cc2-c2ccc3c(ccc4ccccc43)c2)cc1 [OSU03012] (first compound 0.02 µM, partner dose 1 µM)	97.8%
CO[C@H]1C[C@@H]2CC[C@@H](C)[C@@](O)(O2)C(=O)C(=O)N2CCCC[C@H]2C(=O)O[C@H]([C@H](C)C[C@@H]2CC[C@@H](OCCO)[C@H](OC)C2)CC(=O)[C@H](C)/C=C(\C)[C@@H](O)[C@@H](OC)C(=O)[C@H](C)C[C@H](C)/C=C/C=C/C=C/1C [everolimus] + NC(=O)Nc1cc(-c2cccc(F)c2)sc1C(=O)N[C@H]1CCCNC1 [AZD7762] (first compound 0.02 µM, partner dose 0.02 µM)	131%
CO[C@H]1C[C@@H]2CC[C@@H](C)[C@@](O)(O2)C(=O)C(=O)N2CCCC[C@H]2C(=O)O[C@H]([C@H](C)C[C@@H]2CC[C@@H](OCCO)[C@H](OC)C2)CC(=O)[C@H](C)/C=C(\C)[C@@H](O)[C@@H](OC)C(=O)[C@H](C)C[C@H](C)/C=C/C=C/C=C/1C [everolimus] + O=C(Nc1ccccc1)c1cc([N+](=O)[O-])ccc1Cl [GW9662] (first compound 0.02 µM, partner dose 2 µM)	105%

Given with bars between the fields: part of the list above.
Compound | cleaved PARP positive nuclei fraction
CO[C@H]1C[C@@H]2CC[C@@H](C)[C@@](O)(O2)C(=O)C(=O)N2CCCC[C@H]2C(=O)O[C@H]([C@H](C)C[C@@H]2CC[C@@H](OCCO)[C@H](OC)C2)CC(=O)[C@H](C)/C=C(\C)[C@@H](O)[C@@H](OC)C(=O)[C@H](C)C[C@H](C)/C=C/C=C/C=C/1C [everolimus] + CCN(CC)CCCCNc1ncc2cc(-c3cc(OC)cc(OC)c3)c(NC(=O)NC(C)(C)C)nc2n1 [PD173074] (first compound 0.02 µM, partner dose 0.1 µM) | 93.1%
CO[C@H]1C[C@@H]2CC[C@@H](C)[C@@](O)(O2)C(=O)C(=O)N2CCCC[C@H]2C(=O)O[C@H]([C@H](C)C[C@@H]2CC[C@@H](OCCO)[C@H](OC)C2)CC(=O)[C@H](C)/C=C(\C)[C@@H](O)[C@@H](OC)C(=O)[C@H](C)C[C@H](C)/C=C/C=C/C=C/1C [everolimus] + Cc1cc(N2CCOCC2)cc2[nH]c(-c3c(NC[C@@H](O)c4cccc(Cl)c4)cc[nH]c3=O)nc12 [BMS536924] (first compound 0.02 µM, partner dose 0.2 µM) | 125%
